Measurements reported in US20020164581A1 (priority 2001, published 2002).
At least one structure is not confirmed: it was looked up by name or label, or the drawing left a doubt.

Tested on: bovine aortic endothelial cells (bAECs)
Method: Primary cultures of bAECs were established from five female beef cattle (ranging in age from 1 to 2 years old) according to the method of Fenselau and Mello (Cancer Res. 36:3269-3273, 1976). Pooled cells were routinely maintained under humidified air (5% CO2) at 37° C. in Dulbecco's modified medium supplemented with 10% fetal bovine serum (FBS). Cells from the second to the fifth passages were used in these studies.
In the studies in which male and female bAECs were compared, batches of bAECs were independently established from 5 female and 4 male beef cattle (ranging in age from 1 to 2 years old) according to the method of Fenselau and Mello (Cancer Res. 36:3269-3273, 1976). Otherwise, the cells were treated and assessed as described in the paragraph above. […]
Cell survival after oxidative challenge was assessed with a 3-(4,5-dimethylthiazol-2-yl) 2,5 diphenyltetrazolium bromide (MTT) assay in which the mitochondrial dehydrogenase activity of viable cells reduces MTT to a blue formazan product (Carmichael et al. Cancer Res. 47:936-942, 1987). […] Following cell lysis, the absorbency was measured at 570 nm and used as an indicator of relative cell survival. The surviving fraction was calculated as compared to the cells without paraquat challenge. […]

C[C@]12CC[C@@H]3c4ccc(O)cc4CC[C@H]3[C@@H]1CCC2=O [estrone]
protection against subsequent oxidative challenge: neither positively nor negatively influenced oxidative resistance
